The record followed here is publication PMC3081313, “Factors Defining the Functional Oligomeric State of Escherichia coli DegP Protease” (PLoS ONE, 2011).

No constants are given. Whether binding was seen depends on the method and setting. Binding calls can cover weak binding; strength is not graded here.

The assay deals with T1, proteolytically inactive DegP_(S210A) (Escherichia coli) (UniProt P0C0V0).
T1 sequence: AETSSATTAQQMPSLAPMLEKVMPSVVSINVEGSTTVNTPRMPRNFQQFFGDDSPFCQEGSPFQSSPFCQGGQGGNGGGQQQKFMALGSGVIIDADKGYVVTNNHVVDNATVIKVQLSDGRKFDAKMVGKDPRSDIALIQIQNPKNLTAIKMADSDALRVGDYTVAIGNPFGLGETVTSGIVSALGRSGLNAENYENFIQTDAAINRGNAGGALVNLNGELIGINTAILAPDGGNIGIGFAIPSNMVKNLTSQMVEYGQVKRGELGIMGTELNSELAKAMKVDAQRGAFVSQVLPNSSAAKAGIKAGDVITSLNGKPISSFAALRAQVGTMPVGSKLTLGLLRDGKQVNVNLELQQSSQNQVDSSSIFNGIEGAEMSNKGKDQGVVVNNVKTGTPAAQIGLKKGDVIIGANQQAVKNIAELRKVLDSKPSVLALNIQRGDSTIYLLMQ
Description: SEC; DegP_(S210A) mixed with full-length α-casein (concentrations in the figure), 37°C 10 min; Superdex 200 in 50 mM HEPES pH 7.3, 150 mM NaCl at 4°C; both purified. For orientation: Size exclusion chromatography separates by hydrodynamic size, large species first.

On to full-length α-casein, for which the binding entry is “binds”.
